Values quoted from earlier work in patent US20040223963A1, “Method for treating ischemic stroke with melatonin” (priority 2003, published 2004).
At least one compound was matched to its structure with a doubt left.

tested on: ischemic stroke; settings: clinical trials on neuroprotection against ischemic stroke; cited from earlier work

Structure (SMILES)	Results (efficacy)
COCCOC(=O)C1=C(C)NC(C)=C(C(=O)OC(C)C)C1c1cccc([N+](=O)[O-])c1 (stereo not drawn) [Nimodipine]	No efficacy
C[N+](C)(C)CCOP(=O)(O)OP(=O)([O-])OC[C@H]1O[C@@H](n2ccc(N)nc2=O)[C@H](O)[C@@H]1O [Citicoline]	Possible benefit in
O=c1c2ccccc2[se]n1-c1ccccc1 [Ebselen]	No efficacy
